# According to PubChem BioAssay AID200 (DTP/NCI, 2004):
# The list is a part of this screen's results and no random one: it gathers tests that were run many times, whatever their T/C, doses with no T/C, and many T/C values between a quarter and a half above the control. Other doses and runs of a compound stand elsewhere. T/C is the treated group as % of the vehicle group. Some doses have a count of surviving animals in place of a T/C: the source holds a T/C of zero for them, seemingly a mark for toxic or unscored doses. Some doses without a T/C left all or most animals alive at the check, yet need not have been tolerated: survival well below the control is almost never listed, so the zero probably covers shortened survival too. Counts of survivors are from the toxicity check (mostly the fifth day) where no day follows; animals may have died later. Schedule codes are those of the source, read here as Q, the interval in days (D) or hours (H), X, the number of doses. Counts like (3×) give the number of equal values in this list. Some doses were run more than once; the values are given in rising order. For survival time, the PubChem record calls one and a half times the control and up active, and a quarter to a half above the control has no call in these data; cut-offs in other NCI protocols can differ. Some T/C values are followed by the survivors on the day toxicity was checked, most often the fifth; where none is given, no animal had died by that day.
# Test system: B6C3F1 mice, B16 melanoma ip, median survival T/C
# Assay: NCI In Vivo Anticancer Drug Screen. Data for tumor model B16 Melanoma (intraperitoneal) in B6C3F1 mice
# Settings: T/C endpoint: median survival time, schedule: Q01DX009 (ip), higher T/C = longer survival
# Procedure, shortened: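 Values are T/C ratios: the measurement in treated animals divided by that in vehicle-treated controls, using survival or tumor size in mice carrying transplantable tumors.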
# [1] = dose: 400.0 mg/kg/injection, vehicle: saline with Tween-80
# [2] = dose: 100.0 mg/kg/injection, vehicle: saline
# [3] = dose: 200.0 mg/kg/injection, vehicle: saline
# [4] = dose: 400.0 mg/kg/injection, vehicle: saline
# [5] = dose: 12.5 mg/kg/injection, vehicle: saline with Tween-80
# [6] = dose: 25.0 mg/kg/injection, vehicle: saline with Tween-80
# [7] = dose: 50.0 mg/kg/injection, vehicle: saline with Tween-80
# [8] = dose: 100.0 mg/kg/injection, vehicle: saline with Tween-80
# [9] = dose: 200.0 mg/kg/injection, vehicle: saline with Tween-80
compound,measurement,setting,value
CC[C@H](CC[C@@H](C)C1CC[C@H]2[C@@H]3CC=C4C[C@@H](OP(=O)(N5CC5)N5CC5)CC[C@]4(C)[C@H]3CC[C@]12C)C(C)C (stereo partly specified),survivor count,[1],10 of 10 (2×)
CCCCCCCCCCS(=O)CC(CO)NC(=O)/C=C/c1c(C)[nH]c(=O)[nH]c1=O (stereo unspecified),survivor count,"dose: 12.0 mg/kg/injection, vehicle: distilled water + Tween-80",10 of 10
same,survivor count,"dose: 12.0 mg/kg/injection, vehicle: water",8 of 10
CC#CCOCC(O)CCl (stereo unspecified),survivor count,"dose: 400.0 mg/kg/injection, vehicle: suspension in saline",10 of 10
Nc1ncn(C2OC(CO)C(O)C2O)c(=O)n1 (stereo unspecified),survivor count,"dose: 1.0 mg/kg/injection, vehicle: saline",10 of 10
same,survivor count,"dose: 2.0 mg/kg/injection, vehicle: saline",9 of 10
same,T/C,"dose: 3.0 mg/kg/injection, vehicle: saline",131 % of control
same,survivor count,"dose: 4.0 mg/kg/injection, vehicle: saline",9 of 10
same,survivor count,"dose: 8.0 mg/kg/injection, vehicle: saline",10 of 10
same,survivor count,"dose: 12.0 mg/kg/injection, vehicle: saline",10 of 10
same,survivor count,"dose: 16.0 mg/kg/injection, vehicle: saline",9 of 10
same,T/C,"dose: 25.0 mg/kg/injection, vehicle: saline",126 % of control
same,survivor count,"dose: 32.0 mg/kg/injection, vehicle: saline",2 of 10
same,T/C,[2],"131, 134, 137 % of control"
same,T/C,[3],134 and 141 % of control
same,T/C,[4],145 % of control
same,survivor count,[4],10 of 10
Cc1c(N)nc([C@H](CC(N)=O)NC[C@H](N)C(N)=O)nc1C(=O)N[C@H](C(=O)N[C@H](C)[C@@H](O)CC(=O)N[C@H](C(=O)NC(O[C@@H]1O[C@@H](C)[C@@H](N)[C@@H](O)[C@H]1O)C(O)c1nc(-c2nc(C(=O)NCCCCN)cs2)cs1)[C@@H](C)O)[C@@H](O[C@@H]1O[C@@H](CO)[C@@H](O)[C@H](O)[C@@H]1O[C@H]1O[C@H](CO)[C@@H](O)[C@H](OC(N)=O)[C@@H]1O)c1c[nH]cn1 (stereo partly specified),T/C,"dose: 0.8 mg/kg/injection, vehicle: saline",137 % of control
same,T/C,"dose: 1.6 mg/kg/injection, vehicle: saline",144 % of control
same,T/C,"dose: 3.2 mg/kg/injection, vehicle: saline",138 % of control
COC(=O)C12OCC34C(CC5C(C)C6=CC(=O)OC6=CC5(C)C3C(O)C1O)OC(=O)C(O)C24 (stereo unspecified),T/C,"dose: 0.13 mg/kg/injection, vehicle: Klucel (hydroxypropylcellulose) (HPC)",149 % of control
same,T/C,"dose: 0.25 mg/kg/injection, vehicle: Klucel (hydroxypropylcellulose) (HPC)",145 % of control
same,T/C,"dose: 1.0 mg/kg/injection, vehicle: Klucel (hydroxypropylcellulose) (HPC)",149 % of control [9 of 10 alive]
same,survivor count,"dose: 2.0 mg/kg/injection, vehicle: Klucel (hydroxypropylcellulose) (HPC)",7 of 10
same,T/C,"dose: 300.0 micrograms/kg/injection, vehicle: Klucel (hydroxypropylcellulose) (HPC)",133 % of control
same,T/C,"dose: 500.0 micrograms/kg/injection, vehicle: Klucel (hydroxypropylcellulose) (HPC)",149 % of control
OC(CCl)CN1CC[N+]2(CC1)CC[N+]1(CCN(CC(O)CCl)CC1)CC2 (stereo unspecified),survivor count,"dose: 50.0 mg/kg/injection, vehicle: saline",3 of 10
same,survivor count,[2],0 of 10
same,survivor count,[3],0 of 10
same,survivor count,[4],0 of 10
S=C(N/N=C1/CCCC/C1=N/NC(=S)N1CCOCC1)N1CCOCC1,survivor count,[5],8 of 10
same,survivor count,[6],3 of 10
C=C1COC(O)(C2OCOC(C3CC(=O)NC(=O)C3)C2O)C1C (stereo unspecified),T/C,"dose: 16.0 micrograms/kg/injection, vehicle: water",125 % of control
same,survivor count,"dose: 32.0 micrograms/kg/injection, vehicle: water",9 of 10
same,survivor count,"dose: 64.0 micrograms/kg/injection, vehicle: water",0 of 10 and 9 of 9
same,survivor count,"dose: 128.0 micrograms/kg/injection, vehicle: water",0 of 10
C1=CCOCOC1,T/C,[5],"99, 100, 104, 110 % of control"
same,T/C,[6],"95, 103, 104, 127 % of control"
same,T/C,[7],"97, 99, 100, 112 % of control"
same,T/C,[8],"100 [9 of 10 alive], 103, 104, 114 % of control"
same,T/C,[9],"93 [9 of 10 alive], 96 [7 of 10 alive], 110 % of control"
same,survivor count,[9],6 of 10
same,survivor count,[1],0 of 10 and 6 of 10
Brc1c(NC2=NCCN2)ccc2nccnc12,survivor count,[2],8 of 10
same,survivor count,[3],8 of 10
CC(=O)Nc1c2sscc-2n(C)c1=O,survivor count,"dose: 1.56 mg/kg/injection, vehicle: saline",9 of 10
same,survivor count,"dose: 3.13 mg/kg/injection, vehicle: saline with Tween-80",9 of 10
same,survivor count,"dose: 6.25 mg/kg/injection, vehicle: saline with Tween-80",0 of 10
same,survivor count,[5],0 of 10
same,survivor count,[6],0 of 10
CC[C@]1(O)C[C@H](OC2CC(N(C)C)C(OC3CC(O)C(O)C(C)O3)C(C)O2)c2c(cc3c(c2O)C(=O)c2c(O)ccc(O)c2C3=O)[C@H]1C(=O)OC (stereo partly specified),T/C,"dose: 0.5 mg/kg/injection, vehicle: Klucel (hydroxypropylcellulose) (HPC)",130 % of control
same,survivor count,"dose: 4.0 mg/kg/injection, vehicle: Klucel (hydroxypropylcellulose) (HPC)",10 of 10
Cc1ccc(S(=O)(=O)NC(=O)OC23COCN2COC3)cc1,T/C,[7],128 % of control
same,T/C,[8],128 % of control
same,T/C,[9],125 % of control
NC(=O)c1c[se]c(C2OC(CO)C(O)C2O)n1 (stereo unspecified),survivor count,"dose: 200.0 mg/kg/injection, vehicle: water",10 of 10
